## Library screen at single concentrations

By UniProt entry, the sequences of proteins in these tests, tags left out. Residues count along the entry.
UniProt Q4DA54, 1-478: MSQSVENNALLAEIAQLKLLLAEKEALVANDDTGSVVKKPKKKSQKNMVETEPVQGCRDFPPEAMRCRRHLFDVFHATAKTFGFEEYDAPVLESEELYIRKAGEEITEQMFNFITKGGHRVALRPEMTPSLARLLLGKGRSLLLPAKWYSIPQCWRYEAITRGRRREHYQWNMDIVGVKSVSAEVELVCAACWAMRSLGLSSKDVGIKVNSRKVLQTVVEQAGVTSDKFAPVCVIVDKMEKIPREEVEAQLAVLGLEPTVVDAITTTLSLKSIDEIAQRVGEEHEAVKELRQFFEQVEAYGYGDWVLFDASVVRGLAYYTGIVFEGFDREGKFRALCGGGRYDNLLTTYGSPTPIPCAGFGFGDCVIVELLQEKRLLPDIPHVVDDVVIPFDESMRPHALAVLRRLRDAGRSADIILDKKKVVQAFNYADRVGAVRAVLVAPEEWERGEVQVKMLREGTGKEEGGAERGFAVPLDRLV

The values are deposited in ChEMBL (CHEMBL3988442, “University of Dundee, Small-Polar-MMV Screening Library” (2021)).

Results are given as percent effect.
The record does not define 0% and 100%; most values in the screen are far below 50% and negative numbers occur (in some assays of this library far below -100).
Compounds were drawn at random from those tested, without regard to their results.

A: 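Assay of Toxoplasma gondii numbers, read through their beta-galactosidase reporter with a colour substrate. Concentration: 10 µM. Higher reads as fewer parasites (inferred from which compounds were picked for retests). About 67,000 compounds were tested under these conditions; 0.38% (about 260) showed 50% or more at least once.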
B: 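Histidine-tRNA ligase, Trypanosoma cruzi CL Brener (UniProt Q4DA54). Enzyme assay of histidyl-tRNA synthetase; the read-out is not stated. Concentration: 30 µM. The record gives no direction; compounds that gave an IC50 in retests scored well above the rest, so higher reads as stronger inhibition. Of about 69,000 compounds tested this way, about 31 (0.045%) reached 50% or more in at least one test.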

* CCNC(=O)CN1CCN(Cc2nc3c(F)cccc3n2CC)CC1 | A: -7.138%; B: 7.101%
* O=C(O)C(F)(F)F.O=C(O)C(F)(F)F.[H][C@@]12COC[C@]1(COC)CN(Cc1ccc3ccccc3n1)C2 | A: 2.1%
* Cc1ccccc1CCC1CCCN(C(=O)Cc2cc(=O)[nH]c(N)n2)C1 (centres undefined) | A: 22.41%; B: 6.087%
* CC(C)(C)C(=O)NCCc1cc2nc(-c3ccncc3)ccn2n1 | A: 19.73%; B: 2.273%
* CN1CCN(Cc2cccnc2)C2(CCN(c3ncc(F)cn3)C2)C1=O.O=C(O)C(F)(F)F.O=C(O)C(F)(F)F (centres undefined) | A: 9.239%
* O=S(=O)(C1CC1)N1CCn2c(Cn3cncn3)cnc2C1 | A: -14.45%; B: 3.743%
* COCCN(C)C(=O)Nc1ccc(C(=O)NCCC(=O)OC)cc1 | A: -12.34%; B: 2.128%
* CCOC[C@@H]1CCC[C@@]12CN(Cc1nccs1)CCO2 | A: -3.05%; B: 0.5464%
* c1cnnc(N2CCCC2CNCc2cnc(N3CCCC3)nc2)c1 (centres undefined) | A: -3.993%; B: 3.383%
* O=C(c1ccccc1)N1CC[C@H]2C[C@@H](c3nnc(C4CC4)o3)O[C@@H]2C1 | B: 6.349%
* CCOc1ccc(CNCCCn2ccnc2)cc1OC | A: 8.099%; B: 4.545%
* COCCCN1C(=O)CC[C@H]2CN(c3ccc(C(N)=O)cn3)CC[C@H]21 | B: 2.899%
* Cc1nnc2ccc(OCCNS(=O)(=O)c3cccs3)nn12 | A: 0.04502%; B: 12.98%
* O=C(NCCOCCO)[C@@]12CNC[C@@H]1CN(C1CCCC1)C2 | B: 6.18%
* Cc1ccc(C(=O)N2CCN(C)C3(CCC(=O)N(C)CC3)C2)c(F)c1 (centres undefined) | A: 7.54%; B: -0.4975%
* Cc1ccccc1-n1ccc2nc(N3CCCC3)ncc2c1=O | A: -0.4464%; B: 5.682%
* COCCN(C)C(=O)Nc1ccn(-c2cccc(C(F)(F)F)c2)n1 | A: 11.55%; B: 3.922%
* Cc1ccc(C(=O)NC(C)CN2CCCC2=O)c(=O)[nH]1 (centres undefined) | A: -0.3284%; B: 7.438%
* N#CCCN(Cc1ccco1)C(=O)c1ccc(OCC2CC2)cc1 | A: -5.62%; B: 0%
* CC(C)NCC1(O)CCCN(CCC2CCCCC2)C1=O (centres undefined) | A: 3.812%; B: -5.528%
* NC(=O)C1CCN(Cn2nc(-c3ccc(F)cc3)oc2=O)CC1 | A: 13.5%; B: -2.51%
* Cc1occc1C(=O)N1Cc2nccn2CC(CN2CCOCC2)C1 (centres undefined) | B: 6.122%
* COc1c(C)cnc(CNC(=O)c2cc(C)nc3onc(C)c23)c1C | A: -8.171%; B: 0%
* O=C(c1ccc[nH]1)N1CCc2c(COCC3CC3)cncc2C1 | B: 6.077%
* O=C(O)C(F)(F)F.[H][C@@]12CCN(Cc3ccoc3)[C@]1([H])CC[C@H](C(=O)NCc1cccs1)O2 | A: 15%
* O=C(c1cccnc1N1CCOCC1)N1CCCC(n2ccnc2)C1 (centres undefined) | A: -1.553%; B: 3.422%
* Cn1cc(NCCOc2ccc(F)cc2)cn1 | A: -3.167%; B: -37.11%
* O=C(O)C(F)(F)F.O=C(O)C(F)(F)F.[H][C@@]12COC[C@]1([H])[C@@H](OCCN(C)C)CN2Cc1ccc2c(c1)OCO2 | A: -3.718%
* CCc1nc(C)ncc1C(=O)N1CCN(CC)c2ccccc21 | A: -8.678%; B: 9.827%
* CCC(NC(=O)c1ccco1)c1ccccc1OCC(=O)N1CCCC1 (centres undefined) | A: -18.27%; B: -2.29%
* CC1CN(C)CCN1C(=O)c1ccn(-c2ccccc2Cl)n1 (centres undefined) | A: -17.27%; B: 0.5747%
* Cc1c(F)cc(C(=O)O)cc1S(=O)(=O)Nc1ccc(C#N)cc1 | A: 3.365%; B: 2.639%
* O=C(CCc1nc2ccccc2[nH]1)NC1CCOC2(CCOCC2)C1 (centres undefined) | A: 14.28%; B: 1.493%

The first 3 entries again:

{"compound": "CCNC(=O)CN1CCN(Cc2nc3c(F)cccc3n2CC)CC1", "A": -7.138, "B": 7.101}
{"compound": "O=C(O)C(F)(F)F.O=C(O)C(F)(F)F.[H][C@@]12COC[C@]1(COC)CN(Cc1ccc3ccccc3n1)C2", "A": 2.1}
{"compound": "Cc1ccccc1CCC1CCCN(C(=O)Cc2cc(=O)[nH]c(N)n2)C1", "stereo": "centres undefined", "A": 22.41, "B": 6.087}